Results deposited as PubChem BioAssay AID1259308 (NCATS, 2017)
Purpose: 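Candidate targets for better recombinant protein yield in mammalian cells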 (primary screen). Cells: human HEK293 embryonic kidney cells stably expressing firefly luciferase (HEK-CMV-Luc2-Hygro). Reagent: single siRNA against human genes, 0.8 pmol siRNA per well. Timing: 72 h. Detection: 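Reporter luminescence and viable-cell signal on separate replicate plates, given as percent of non-targeting control and median/MAD z-scores, plus per-cell luciferase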. Reading the numbers: total luciferase, z-score and total luciferase, % of control: higher = more reporter protein produced; luciferase per cell, z-score: higher = more reporter output per viable cell. Hit rule: 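An siRNA counts as active if its total luciferase robust z-score exceeds 3; genes with two or more such siRNAs out of three were retested with fresh siRNAs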. Meaning of the calls: active = raised luciferase; inactive = no rise.
The deposit covers about 59,000 reagents; below is a part drawn at random. In the full data, about 1,510 (2.6%) got an active call. 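Calls use total luciferase alone and ignore viability, so some active siRNAs may act by altering cell number.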 A number with no mark means an inactive call. The numbers tell different reagents against one gene apart. Not all columns of the deposit are shown.

target gene	siRNA no.	total luciferase, z-score	total luciferase, % of control	luciferase per cell, z-score
HSPA8P14	1	-0.224	77.4	0.608
HSPA8P14	2	-0.434	73.3	-0.363
HSPA8P14	3	0.168	85.2	-0.0857
EHMT2	1	-0.679	68.4	-0.196
EHMT2	2	-2.17	38.7	-1.58
EHMT2	3	1.56	113	0.828
GRWD1	1	0.645	94.7	0.468
GRWD1	2	0.921	100	0.271
GRWD1	3	-0.549	71	-0.761
ARHGEF26	1	-0.589	70.2	-0.644
ARHGEF26	2	0.916	100	0.804
ARHGEF26	3	-0.499	72	-0.707
ZBED8	1	-0.883	64.3	-0.839
ZBED8	2	0.562	93.1	0.171
ZBED8	3	0.169	85.3	-0.35
NRM	1	0.966	101	0.161
NRM	2	0.223	86.3	0.414
NRM	3	0.126	84.4	-0.14
PIGX	1	-0.465	72.6	0.178
PIGX	2	0.208	86	-0.0408
PIGX	3	-1.41	53.8	-1.86

Quoted from the listing for reference:
target gene	siRNA no.	total luciferase, z-score	total luciferase, % of control	luciferase per cell, z-score
GRWD1	2	0.921	100	0.271
GRWD1	3	-0.549	71	-0.761
ARHGEF26	1	-0.589	70.2	-0.644
ARHGEF26	2	0.916	100	0.804
ARHGEF26	3	-0.499	72	-0.707

Additional records follow.
target gene	siRNA no.	total luciferase, z-score	total luciferase, % of control	luciferase per cell, z-score
SYT3	1	-0.174	78.4	-0.188
SYT3	2	1.66	115	1.98
SYT3	3	-0.188	78.1	-0.178
CHMP7	1	1.09	103	0.138
CHMP7	2	0.806	97.9	0.185
CHMP7	3	0.45	90.8	0.0825
FGF1	1	0.754	96.9	0.461
FGF1	2	-0.463	72.7	-1.12
FGF1	3	2.3	128	2.29
NOP10	1	-0.0791	80.3	-0.13
NOP10	2	1.02	102	0.919
NOP10	3	1.73	116	1.32
GINS2	1	-0.454	72.9	0.429
GINS2	2	0.523	92.3	-0.0885
GINS2	3	1.14	105	1.36
CCDC110	1	-1.15	59.1	0.0596
CCDC110	2	-0.854	64.9	-1.13
CCDC110	3	0.243	86.7	-0.305
